PMC4920673, “Nitroimidazole carboxamides as antiparasitic agents targeting Giardia lamblia, Entamoeba histolytica and Trichomonas vaginalis” (European Journal of Medicinal Chemistry, 2016)
Some compounds share one range, which may span the group rather than tell each member.

What follows are compounds tested on T. vaginalis F1623 (assay: ATP-bioluminescence growth/survival EC50 assay, T. vaginalis). Conditions: not given.
Format: cell-based, Trichomonas vaginalis
Protocol: (§1) Compounds were screened for antiparasitic activity using an ATP-bioluminescence based assay for cell growth and survival, [24]. […] Viable cell numbers were determined in triplicate using the CellTiter-Glo Luminescent Cell Viability Assay.

Row | SMILES | fold less potent than 12d, T. vaginalis
1 | O=C(c1ncc([N+](=O)[O-])[nH]1)N1CCCC1 [Compound 12i, (5-nitro-1H-imidazol-2-yl)(pyrrolidin-1-yl)methanone] | 2–3 fold
2 | Cc1ccc(CCNC(=O)c2ncc([N+](=O)[O-])[nH]2)cc1 [Compound 12e, N-(4-methylphenethyl)-5-nitro-1H-imidazole-2-carboxamide] | 2–3 fold

What follows are compounds tested on G. lamblia 713M3 (MtzR) (assay: ATP-bioluminescence growth/survival EC50 assay, G. lamblia 713M3). Conditions: not given.
Format: cell-based, Giardia lamblia
Protocol: as §1

Row | SMILES | fold more active than metronidazole, MtzR G. lamblia
3 | CC(NC(=O)c1ncc([N+](=O)[O-])n1C)c1ccc(F)cc1 (centres unmarked) [Compound 8d, N-(1-(4-fluorophenyl)ethyl)-1-methyl-5-nitro-1H-imidazole-2-carboxamide] | 3–12 fold
4 | Cn1c([N+](=O)[O-])cnc1C(=O)NCc1ccccn1 [Compound 8f, 1-methyl-5-nitro-N-(pyridin-2-ylmethyl)-1H-imidazole-2-carboxamide.xTFA] | 3–12 fold
5 | Cn1c([N+](=O)[O-])cnc1C(=O)NCc1cccc(OC(F)(F)F)c1 [Compound 8c, 1-methyl-5-nitro-N-(3-(trifluoromethoxy)benzyl)-1H-imidazole-2-carboxamide] | 3–12 fold
6 | Cn1c([N+](=O)[O-])cnc1C(=O)N1CCCC1 [Compound 8i, (1-methyl-5-nitro-1H-imidazol-2-yl)(pyrrolidin-1-yl)methanone] | 3–12 fold
7 | Cn1c([N+](=O)[O-])cnc1C(=O)NC1CCCCC1 [Compound 8k, N-cyclohexyl-1-methyl-5-nitro-1H-imidazole-2-carboxamide] | 3–12 fold

What follows are compounds tested on E. histolytica HM1:IMSS (assay: ATP-bioluminescence growth/survival EC50 assay, E. histolytica). Conditions: not given.
Format: cell-based, Entamoeba histolytica
Protocol: as §1

Row | SMILES | fold more potent than metronidazole, E. histolytica
8 | CN(C)C(=O)c1ncc([N+](=O)[O-])[nH]1 [Compound 12g, N,N-dimethyl-5-nitro-1H-imidazole-2-carboxamide] | 2–3 fold
9 | Cc1ccc(CCNC(=O)c2ncc([N+](=O)[O-])[nH]2)cc1 [Compound 12e, N-(4-methylphenethyl)-5-nitro-1H-imidazole-2-carboxamide] | 2–3 fold
10 | O=C(NC1CCCCC1)c1ncc([N+](=O)[O-])[nH]1 [Compound 12k, N-cyclohexyl-5-nitro-1H-imidazole-2-carboxamide] | 2–3 fold
11 | CC(NC(=O)c1ncc([N+](=O)[O-])[nH]1)c1ccc(F)cc1 (centres unmarked) [Compound 12d, N-(1-(4-fluorophenyl)ethyl)-5-nitro-1H-imidazole-2-carboxamide] | 2–3 fold

What follows are compounds tested on G. lamblia WB (MtzS) (assay: ATP-bioluminescence growth/survival EC50 assay, G. lamblia WB). Conditions: versus 8f, 8g and 8h.
Protocol: as §1

Row | SMILES | fold less active than the respective 1-methyl analogues, G. lamblia
12 | O=C(c1ncc([N+](=O)[O-])[nH]1)N1CCOCC1 [Compound 12h, Morpholino(5-nitro-1H-imidazol-2-yl)methanone] | 3.5–5.5 fold
13 | CN(C)C(=O)c1ncc([N+](=O)[O-])[nH]1 [Compound 12g, N,N-dimethyl-5-nitro-1H-imidazole-2-carboxamide] | 3.5–5.5 fold
14 | O=C(NCc1ccccn1)c1ncc([N+](=O)[O-])[nH]1 [Compound 12f, 5-nitro-N-(pyridin-2-ylmethyl)-1H-imidazole-2-carboxamide] | 3.5–5.5 fold
